{"source": "PubChem BioAssay AID662", "about": "(National Center for Advancing Translational Sciences (NCATS), 2007)", "note": "The list shows a part of the results. The main result of the screen is listed elsewhere. These columns were measured beside it and carry no call. Compounds called inactive in the main read-out are mostly missing here. The note in brackets gives the kind of curve behind each potency; many fits are weak.", "data": [{"assay": "Cell signaling CRE-BLA (Fsk stim)", "conditions": "CHO CRE-bla reporter (cAMP response element driving beta-lactamase), forskolin EC10, beta-lactamase ratio; measured here: 460 nm blue channel", "outline": "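Modulation of forskolin-driven signalling is measured in CHO cells carrying a CRE-controlled beta-lactamase reporter. Cells are stimulated with EC10 NKH 477 in the presence of titrated compound for 3 h at 37 °C, then loaded with CCF4 for 2 h at room temperature.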", "values": [{"compound": "N#C/C(=C1/CCCCCN1)c1nnc2n1CCCCC2", "AC50": "0.631 µM [falling, full curve, poor fit]"}, {"compound": "Cc1nn(-c2ccccc2)c2sc(C(=O)OC3CCOC3=O)cc12", "note": "(configuration not stated)", "AC50": "10 µM [rising, single point]"}, {"compound": "COc1cc2c(cc1OC)C(c1ccc3c(c1)OCO3)C1=C(CC(C)(C)CC1=O)N2", "note": "(configuration not stated)", "AC50": "12.6 µM [rising, partial curve]"}, {"compound": "O=C(Cn1nc(-c2ccccc2)c2ccccc2c1=O)NCC1CCCO1", "note": "(configuration not stated)", "AC50": "12.6 µM [rising, single point]"}, {"compound": "COCCOC(=O)c1c(C)oc2ccc(NS(=O)(=O)c3ccccc3)cc12", "AC50": "10 µM [rising, partial curve]"}, {"compound": "COc1ccccc1N(C(=O)c1snc(C(N)=O)c1N)C(C(=O)NC1CCCC1)c1ccco1", "note": "(configuration not stated)", "AC50": "3.16 µM [rising, single point]"}, {"compound": "CCN(CC)S(=O)(=O)c1cccc(C(=O)Nc2cc(C)nn2-c2nc(C)cc(C)n2)c1", "AC50": "3.98 µM [falling, single point]"}, {"compound": "CC(C)c1ccc(NC(=O)N2CCC(c3nc4ccccc4o3)CC2)cc1", "AC50": "0.631 µM [falling, single point]"}, {"compound": "CCOc1cc(C2NC(=O)NC(O)(C(F)(F)F)C2C(=O)c2ccc(Cl)cc2)ccc1O", "note": "(configuration not stated)", "AC50": "0.00398 µM [falling, full curve, poor fit]"}, {"compound": "COCCCN1C(=O)C(=O)/C(=C(/O)c2ccc(OCC(C)C)cc2C)C1c1cccnc1", "note": "(configuration not stated)", "AC50": "0.00316 µM [rising, full curve, poor fit]"}, {"compound": "CN1CCN(c2ncc3nc(CCc4ccccc4)c(=O)n(Cc4cccs4)c3n2)CC1", "AC50": "10 µM [rising, partial curve]"}, {"compound": "CCC(=O)N1c2ccc(S(=O)(=O)CCC(=O)N3CCN(c4ccccc4)CC3)cc2CC1C", "note": "(configuration not stated)", "AC50": "0.501 µM [falling, partial curve]"}, {"compound": "CCOC(=O)c1ccccc1NC(=O)CN(c1ccccc1OC)S(C)(=O)=O", "AC50": "1.58 µM [rising, partial curve]"}, {"compound": "Cc1cc(NC(=O)COC(=O)c2n[nH]c3ccccc23)no1", "AC50": "2.51 µM [rising, partial curve, poor fit]"}, {"compound": "COc1cc(-n2c(=O)c3ccccc3n(Cc3cccnc3)c2=O)cc(OC)c1OC", "AC50": "0.316 µM [falling, partial curve]"}, {"compound": "CCN(C(=O)c1cccs1)c1nnc(-c2ccncc2)s1", "AC50": "0.1 µM [falling, single point]"}, {"compound": "Cc1ccc(C(NC(=O)N2CCOCC2)=C(Cl)Cl)cc1F", "AC50": "5.01 µM [falling, full curve]"}, {"compound": "c1cn2c(NC3CCCC3)c(-c3ccc(N4CCOCC4)cc3)nc2cn1", "AC50": "10 µM [rising, partial curve]"}, {"compound": "COc1cc(CO)cc(-c2cc(CO)cc(OC)c2OC)c1OC", "AC50": "0.00794 µM [falling, full curve, poor fit]"}, {"compound": "NC(=O)c1sc2nccc(Nc3ccccc3)c2c1N", "AC50": "7.94 µM [falling, partial curve]"}, {"compound": "CCn1nc(NC(=O)c2ccccn2)c2cc3cc(C)ccc3nc21", "AC50": "10 µM [rising, partial curve]"}, {"compound": "Cc1ccc(S(=O)(=O)Nc2nc(C)cc(NCCN)n2)cc1", "AC50": "0.00316 µM [falling, full curve, poor fit]"}, {"compound": "Cc1nnc(NC(=O)CSc2nc3c(c(=O)n2C)SC(C)C3)s1", "note": "(configuration not stated)", "AC50": "10 µM [rising, single point]"}, {"compound": "COCCn1c(C)cc(C(=O)COC(=O)c2ccc3ncsc3c2)c1C", "AC50": "0.00794 µM [falling, full curve, poor fit]"}, {"compound": "COc1ccc(CC(=O)N(Cc2cc3cc(OC)ccc3[nH]c2=O)C(C)C)cc1", "AC50": "12.6 µM [rising, single point]"}, {"compound": "O=C(C1CCC1)N(CCc1ccccc1)Cc1nc2ccccc2c(=O)[nH]1", "AC50": "0.01 µM [falling, full curve, poor fit]"}, {"compound": "Cc1cc(C)nc(-n2nc(C)c(Oc3ccccc3O)c2C)n1", "AC50": "10 µM [rising, partial curve]"}, {"compound": "Cc1cc(C)c2c3c(c(-c4ccccc4)n2n1)c(=O)n(C)c(=O)n3C", "AC50": "0.0501 µM [rising, partial curve, poor fit]"}, {"compound": "CC(C)OC(=O)c1c(NC(=O)CCn2nnc3ccccc32)sc2c1CCCC2", "AC50": "12.6 µM [rising, partial curve]"}, {"compound": "COc1ccc(CNC(=O)C2CCCN2S(=O)(=O)c2ccccc2)cc1", "note": "(configuration not stated)", "AC50": "0.01 µM [falling, full curve]"}, {"compound": "COc1ncc2nc(-c3ccc(Cl)cc3)c(=O)n(-c3ccccc3)c2n1", "AC50": "25.1 µM [rising, partial curve]"}, {"compound": "c1csc(C2C3=C(Nc4ncnn42)c2ccccc2OC3)c1", "note": "(configuration not stated)", "AC50": "3.16 µM [rising, full curve]"}, {"compound": "COc1ccc(-c2nc(C#N)c(NCCc3ccccc3)o2)cc1OC", "AC50": "2.51 µM [rising, full curve]"}, {"compound": "Cn1cccc1C(=O)OCC(=O)c1cc2ccccc2o1", "AC50": "2.51 µM [falling, full curve]"}, {"compound": "COc1ccc(Cl)cc1NC(=O)CSc1nnc(Cc2cccn2C)n1-c1ccc(F)cc1", "AC50": "20 µM [falling, single point]"}, {"compound": "CN(C)Cc1ccccc1-c1nc(N(C)C)c2ccccc2n1", "AC50": "2.51 µM [rising, full curve]"}, {"compound": "COc1ccc(C2CC(c3ccccc3)Nc3nc(NC(=O)c4ccco4)nn32)cc1", "note": "(configuration not stated)", "AC50": "3.16 µM [falling, partial curve]"}, {"compound": "O=C(NCc1cccnc1)C1CCN(S(=O)(=O)c2cccs2)CC1", "AC50": "0.1 µM [falling, full curve, poor fit]"}, {"compound": "O=C(NC1CCCCC1)C(c1ccncc1)N(CC1CCCO1)C(=O)C(F)(F)F", "note": "(configuration not stated)", "AC50": "25.1 µM [falling, single point]"}, {"compound": "COc1ccc(C2CC(c3cc(OC)ccc3OC)n3nnnc3N2)cc1", "note": "(configuration not stated)", "AC50": "10 µM [rising, partial curve]"}, {"compound": "COc1ccc(Oc2ncc3nc(-c4cccc(C#N)c4)c(=O)n(CCC#N)c3n2)cc1", "AC50": "20 µM [rising, single point]"}, {"compound": "CC(C)N(C)C1CCN(C(=O)Nc2ccc(Cl)c(Cl)c2)CC1", "AC50": "25.1 µM [falling, single point]"}]}]}
